Data from PubChem BioAssay AID540275 (National Center for Advancing Translational Sciences (NCATS), 2011).
Among all 320,000 compounds or so, about 620 (0.19%) were called active. Inconclusive results, whose numbers are uncertain, are shown with a selection of clear calls. Cut-off read from the data, not from the text of the source: active = activation above about 80%; inconclusive = between about 30% and that limit; inactive = weaker than that.

By UniProt entry, the sequences of proteins in these tests, tags left out.
UniProt Q8NER1, whole entry, looked up: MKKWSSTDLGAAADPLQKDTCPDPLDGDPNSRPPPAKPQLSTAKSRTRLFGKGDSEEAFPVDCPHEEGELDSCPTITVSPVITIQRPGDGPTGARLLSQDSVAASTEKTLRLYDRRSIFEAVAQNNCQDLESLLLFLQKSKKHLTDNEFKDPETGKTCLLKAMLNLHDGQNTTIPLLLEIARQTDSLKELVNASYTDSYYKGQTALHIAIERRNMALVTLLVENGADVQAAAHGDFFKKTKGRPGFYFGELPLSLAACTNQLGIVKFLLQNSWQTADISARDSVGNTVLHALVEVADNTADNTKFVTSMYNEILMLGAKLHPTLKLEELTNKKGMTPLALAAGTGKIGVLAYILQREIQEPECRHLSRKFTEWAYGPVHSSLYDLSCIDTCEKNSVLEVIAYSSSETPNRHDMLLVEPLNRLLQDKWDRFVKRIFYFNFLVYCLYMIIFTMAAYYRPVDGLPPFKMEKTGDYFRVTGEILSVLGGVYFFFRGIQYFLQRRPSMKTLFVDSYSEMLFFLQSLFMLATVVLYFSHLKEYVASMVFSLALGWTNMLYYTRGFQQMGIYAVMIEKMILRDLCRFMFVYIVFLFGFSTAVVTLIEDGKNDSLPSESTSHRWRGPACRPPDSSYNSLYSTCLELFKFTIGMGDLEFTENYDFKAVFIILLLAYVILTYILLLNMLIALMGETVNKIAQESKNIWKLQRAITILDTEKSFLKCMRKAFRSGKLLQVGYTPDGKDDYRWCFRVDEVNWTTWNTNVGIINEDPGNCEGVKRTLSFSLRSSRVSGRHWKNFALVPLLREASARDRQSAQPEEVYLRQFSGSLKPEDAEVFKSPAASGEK

Each molecule was assayed against Transient receptor potential cation channel subfamily V member 1 (Homo sapiens) (UniProt Q8NER1) (assay: HTS Assay for Compounds that Act as Agonists of the Vanilloid Receptor 1). Conditions: TRPV1-expressing cells, Fluo-8 calcium influx, agonist mode; at 8.33 µM, hits give high values.
Procedure, shortened: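 TRPV1-expressing cells were cultured overnight at 35.5C and loaded with Fluo-8 calcium dye for 40 to 90 min at room temperature. After a 10 s baseline, compound was added and calcium influx was read kinetically for 3 min (ex 480/em 520 nm).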
Note: 0% is about no effect.

Row | Structure (SMILES) | activation
1 | Fc1ccc(NC(=S)NCc2cccnc2)cc1 | inactive: -1.01%
2 | CCn1cc(C(C)NC(=O)COc2ccc(Cl)cc2C)c(C)n1 (stereo not given) | inconclusive: 66.7%
3 | CCOc1c2c(nc3ccc(Cl)cc13)CCC2 | inactive: 19.6%
4 | Cc1ccc(C)c(OCC(O)CN2CCN(CCN3C(=O)c4cccc5cccc(c45)C3=O)CC2)c1 (stereo not given) | inactive: 4.86%
5 | CC1CCc2sc(C(=O)NCC(c3ccco3)N3CCCCC3)cc2C1 (stereo not given) | inactive: 26.2%
6 | Cc1cc2c(NC(=O)Nc3ccc(F)cc3)cccc2nn1 | inconclusive: 73.2%
7 | O=C(CSc1cccs1)Nc1ccc2ccccc2c1 | inconclusive: 58.1%
8 | COc1ccccc1-c1cc(C(F)(F)F)n2ncc(C(=O)N3CCc4ccccc4C3)c2n1 | inconclusive: 30%
9 | O=C(CC(Nc1cccc(Cl)c1Cl)C(=O)O)c1ccccc1 (stereo not given) | inactive: -2.03%
10 | Cc1ccc(-c2ccc(SCC(=O)Nc3ccc4c(c3)OCCO4)nn2)cc1 | inconclusive: 54%
11 | Oc1ccc(/C=N/Nc2ccccc2)cc1 | inactive: 2.17%
12 | O=C(ON=C1CCN(S(=O)(=O)c2ccccc2)CC1)c1cccc(Cl)c1 | inconclusive: 44.8%
13 | CCc1cc2c(=O)c(-c3ccc4c(c3)OCCO4)c(C)oc2cc1OS(C)(=O)=O | inactive: 1.96%
14 | CC1(c2ccc3c(c2)OCCCO3)NC(=O)N(CC(=O)Nc2cccc(C#N)c2)C1=O (stereo not given) | inconclusive: 32.4%
15 | COc1ccc(COC(=O)c2ccc(Cl)c(S(=O)(=O)N3CC(C)OC(C)C3)c2)cc1 (stereo not given) | inconclusive: 32.7%
16 | CCOC(=O)CSc1nc2ccc(N3CCOCC3)cc2c(=O)n1Cc1ccccc1 | inconclusive: 57.3%
17 | O=c1[nH]nc(Sc2ncnc3sccc23)n1CCc1ccccc1 | inactive: 15.1%
18 | COc1ccc(N(C(C)C(=O)N/N=C/c2ccc(OCC(C)C)cc2)S(C)(=O)=O)cc1 (stereo not given) | inactive: -6.75%
19 | CCCCCCc1cc2cc(S(=O)(=O)c3ccc(F)c(Cl)c3)c(=O)oc2cc1O | inconclusive: 51.9%
20 | Cc1ccc2c(c1)nnn2C1CCN(C(=O)NCc2ccccc2)CC1 | active: 88.7%
21 | COc1ccc(CCC(=O)N2CCN(c3cccc(C)c3C)CC2)cc1 | inconclusive: 44.2%
22 | O=C(OC1CCCCC1=O)c1cccc(S(=O)(=O)N2CCCCC2)c1 (stereo not given) | inconclusive: 33.6%
23 | O=C1CC2(CCN(C(=O)c3ccc(F)cc3)CC2)Oc2ccccc21 | inconclusive: 41%
24 | COc1cccc(-c2nn(-c3ccc(C)cc3)cc2C(=O)NCC2CCCO2)c1 (stereo not given) | inconclusive: 39.4%
25 | C=CCSC(=C(C#N)C#N)c1cc2c([nH]1)CCCC2 | inconclusive: 41.1%

Laid out differently: results already given
Row,Structure (SMILES),activation
13,CCc1cc2c(=O)c(-c3ccc4c(c3)OCCO4)c(C)oc2cc1OS(C)(=O)=O,inactive: 1.96%
14,CC1(c2ccc3c(c2)OCCCO3)NC(=O)N(CC(=O)Nc2cccc(C#N)c2)C1=O (stereo not given),inconclusive: 32.4%
